# Test results published in the supplement of paper PMC3741180, “A Novel High Throughput Biochemical Assay to Evaluate the HuR Protein-RNA Complex Formation” (PLoS ONE, 2013).
# Protein sequences, listed by entry. Tags and fused reporters are not part of them.
# UniProt Q15717, whole entry: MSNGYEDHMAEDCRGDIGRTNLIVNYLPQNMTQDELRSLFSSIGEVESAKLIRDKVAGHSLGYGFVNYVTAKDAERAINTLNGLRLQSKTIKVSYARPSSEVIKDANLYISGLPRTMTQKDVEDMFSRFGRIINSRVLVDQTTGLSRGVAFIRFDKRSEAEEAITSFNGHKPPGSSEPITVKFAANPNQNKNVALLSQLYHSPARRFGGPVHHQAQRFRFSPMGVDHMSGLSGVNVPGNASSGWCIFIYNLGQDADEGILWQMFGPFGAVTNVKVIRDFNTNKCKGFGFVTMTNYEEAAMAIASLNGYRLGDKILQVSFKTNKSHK
# The list shows a part of the results. This data set is noisy: repeats of one test often differ as much as different tests do.
# Target: HuR (ELAVL1) - TNFalpha ARE RNA complex (UniProt Q15717)
# Assay: AlphaScreen HuR-RNA complex signal Z-score relative to positive (Bi-TNF, DMSO) controls (Z-score (SD units of positive control)); higher = more complex signal
# Details: screen stage: primary screen; compound concentration: 25 nM
row,Compound,AlphaScreen HuR-RNA complex signal Z-score
1,CC1CCc2cc(F)cc3c(=O)c(C(=O)O)cn1c23 (stereo not given),0.732
2,COc1cc2c(cc1OC)-c1c(oc3cc(O)cc(O)c3c1=O)CO2,2.99
3,CCCCOc1ccc(OCCCN2CCOCC2)cc1,0.775
4,COC(=O)/C(=C1/OC(=O)C(c2ccccc2)=C1O)c1ccccc1,1.16
5,COc1c(O)cc2c(c1O)[C@@H]1O[C@H](CO)[C@@H](O)[C@H](O)[C@H]1OC2=O,0.341
6,COC(=O)[C@@H]1OC(=O)C2OC23[C@@]1(C)CCC1[C@]2(C)C(C[C@@H](O)[C@]13C)C(C)(C)[C@H](OC(C)=O)C[C@@H]2OC(C)=O (stereo not given in full),1.56
7,COc1ccc(C(C)=O)c(O)c1,0.0253
8,COc1cc(-c2coc3cc(OCc4ccccc4)c(OC)c(O)c3c2=O)cc(O)c1OC,1.33
9,CC(C)=CCc1c(O)cc2occ(-c3ccc4c(c3)OCO4)c(=O)c2c1O,1.19
10,CCn1cc(C(=O)O)c(=O)c2cc(F)c(N3CCNCC3)cc21,1.91
11,O=c1c(O)c(-c2ccc(O)c(O)c2)oc2c(O[C@@H]3O[C@H](CO)[C@@H](O)[C@H](O)[C@H]3O)c(O)cc(O)c12,1.4
12,CC(=O)O[C@H]1C[C@@H](OC(C)=O)C(C)(C)C2CC(=O)[C@]3(C)C(CC[C@@]4(C)[C@H](C(=O)O)OC(=O)C5OC543)[C@]21C (stereo not given in full),2.14
13,CCCCCCCCCCCCCCCCC(C(=O)O)C(O)(CC(=O)O)C(=O)O (stereo not given),0.677
14,CCOC(=O)C1=C(C)NC(C)=C(C(=O)OC)C1c1cccc([N+](=O)[O-])c1 (stereo not given),0.418
15,CC1(C)S[C@@H]2[C@H](N3C(=O)[C@@H](c4ccccc4)NC3(C)C)C(=O)N2[C@H]1C(=O)O,-2.04
16,CC(CN1c2ccccc2Sc2ccccc21)N(C)C (stereo not given),11.3
17,C=C1[C@H]2CC[C@@]3(C)[C@H](c4ccoc4)OC(=O)C[C@]13O[C@H]1C[C@H](O)C(C)(C)[C@H](CC(=O)OC)[C@]12C [3-DEOXY-3beta-HYDROXYANGOLENSIC ACID METHYL ESTER],0.982
18,NS(=O)(=O)c1cc2c(cc1C(F)(F)F)NC(Cc1ccccc1)NS2(=O)=O (stereo not given),1.3
19,CN(C)CCCC1(c2ccc(F)cc2)OCc2cc(C#N)ccc21 (stereo not given),1.25
20,CCCC(CCC)C(=O)O,-0.851
21,Cc1onc(-c2ccccc2)c1C(=O)N[C@@H]1C(=O)N2[C@@H]1SC(C)(C)[C@@H]2C(=O)O,-3.01
22,COc1c2c(cc3occ(-c4ccc5c(c4)OCO5)c(=O)c13)OC(C)(C)C=C2,3.67
23,CC1(C)O[C@H]2[C@H](O)C[C@](O)(C(N)=O)C[C@H]2O1,1.81
24,COC1=CC(=O)C[C@@H](C)[C@]12Oc1c(Cl)c(OC)cc(OC)c1C2=O,0.299

row,Compound,AlphaScreen HuR-RNA complex signal Z-score
1,CCC(=O)NCC[C@@H]1CCc2ccc3c(c21)CCO3,0.853
2,CC[C@H](/C=C/[C@@H](C)[C@H]1CC[C@H]2[C@@H]3CCC4=CC(=O)CC[C@]4(C)[C@H]3CC[C@]12C)C(C)C,0.442
3,COc1ccc(-c2coc3cc(O)cc(O)c3c2=O)cc1,0.836
4,COc1cc2c(cc1OC)C(=O)OC2,1.18
5,OCC(O)CN1CCN(c2ccccc2)CC1 (stereo not given),0.937
6,O=C(O)c1ccccc1Nc1cccc(OCc2ccc3ccccc3n2)c1,3.29
7,COc1ccc2cc1Oc1ccc(cc1)C[C@H]1c3c(cc4c(c3Oc3cc5c(cc3OC)CCN(C)[C@@H]5C2)OCO4)CCN1C,0.548
8,COc1ccc(-c2cc(=O)c3c(O)cc(OC)c(OC)c3o2)c(OC)c1,2.08
9,COc1ccc(CC(=O)c2ccc(O)cc2O)cc1,0.762
10,CCOC(=O)c1ccc(O)cc1,0.412
11,Cc1c(OCC(F)(F)F)ccnc1C[S+]([O-])c1nc2ccccc2[nH]1 (stereo not given),0.678
12,O=C(/C=C/c1ccccc1)c1ccc(O)cc1O,0.628
13,Cn1c(=O)c2c(ncn2C)n(C)c1=O,0.399
14,CC1(C)CC[C@]2(C)CC[C@]3(C)C(=CC[C@@H]4[C@@]5(C)CC[C@H](O)C(C)(C)[C@@H]5CC[C@]43C)[C@@H]2C1 [beta-AMYRIN],1.86
15,COC(=O)Nc1nc2cc(C(=O)c3ccccc3)ccc2[nH]1,0.261
16,CC1(C)S[C@@H]2[C@H](NC(=O)[C@H](NC(=O)N3CCNC3=O)c3ccccc3)C(=O)N2[C@H]1C(=O)O,1.29
17,COc1c(-c2coc3cc4c(cc3c2=O)CC(OC(C)=O)C(C)(C)O4)ccc2c1C=CC(C)(C)O2 (stereo not given),0.644
18,NC(=O)c1cc[n+](CC2=C(C(=O)O)N3C(=O)[C@@H](NC(=O)[C@@H](c4ccccc4)S(=O)(=O)[O-])[C@H]3SC2)cc1,1.68
19,CC(=O)Oc1ccc2c(c1)CC[C@@H]1[C@@H]2CC[C@]2(C)[C@@H](O)CC[C@@H]12,1.2
20,COc1ccc(C(Cl)=C(c2ccc(OC)cc2)c2ccc(OC)cc2)cc1,-3.06
21,O=C(O)c1cccc(O)c1O,1.88
22,CC(CCc1ccccc1)NCC(O)c1ccc(O)c(C(N)=O)c1 (stereo not given),1.31
23,CCOC(=O)[C@H](CCc1ccccc1)N[C@@H](C)C(=O)N1Cc2ccccc2C[C@H]1C(=O)O,0.148
24,Cc1cc(O)c(C=O)c2c1C(=O)Oc1c(C)c(O)c3c(c1O2)C(O)OC3=O (stereo not given),0.517

# Another view of 25 compounds above.
row | Compound | AlphaScreen HuR-RNA complex signal Z-score
22 | COc1c2c(cc3occ(-c4ccc5c(c4)OCO5)c(=O)c13)OC(C)(C)C=C2 | 3.67
23 | CC1(C)O[C@H]2[C@H](O)C[C@](O)(C(N)=O)C[C@H]2O1 | 1.81
24 | COC1=CC(=O)C[C@@H](C)[C@]12Oc1c(Cl)c(OC)cc(OC)c1C2=O | 0.299
1 | CCC(=O)NCC[C@@H]1CCc2ccc3c(c21)CCO3 | 0.853
2 | CC[C@H](/C=C/[C@@H](C)[C@H]1CC[C@H]2[C@@H]3CCC4=CC(=O)CC[C@]4(C)[C@H]3CC[C@]12C)C(C)C | 0.442
3 | COc1ccc(-c2coc3cc(O)cc(O)c3c2=O)cc1 | 0.836
4 | COc1cc2c(cc1OC)C(=O)OC2 | 1.18
5 | OCC(O)CN1CCN(c2ccccc2)CC1 (stereo not given) | 0.937
6 | O=C(O)c1ccccc1Nc1cccc(OCc2ccc3ccccc3n2)c1 | 3.29
7 | COc1ccc2cc1Oc1ccc(cc1)C[C@H]1c3c(cc4c(c3Oc3cc5c(cc3OC)CCN(C)[C@@H]5C2)OCO4)CCN1C | 0.548
8 | COc1ccc(-c2cc(=O)c3c(O)cc(OC)c(OC)c3o2)c(OC)c1 | 2.08
9 | COc1ccc(CC(=O)c2ccc(O)cc2O)cc1 | 0.762
10 | CCOC(=O)c1ccc(O)cc1 | 0.412
11 | Cc1c(OCC(F)(F)F)ccnc1C[S+]([O-])c1nc2ccccc2[nH]1 (stereo not given) | 0.678
12 | O=C(/C=C/c1ccccc1)c1ccc(O)cc1O | 0.628
13 | Cn1c(=O)c2c(ncn2C)n(C)c1=O | 0.399
14 | CC1(C)CC[C@]2(C)CC[C@]3(C)C(=CC[C@@H]4[C@@]5(C)CC[C@H](O)C(C)(C)[C@@H]5CC[C@]43C)[C@@H]2C1 [beta-AMYRIN] | 1.86
15 | COC(=O)Nc1nc2cc(C(=O)c3ccccc3)ccc2[nH]1 | 0.261
16 | CC1(C)S[C@@H]2[C@H](NC(=O)[C@H](NC(=O)N3CCNC3=O)c3ccccc3)C(=O)N2[C@H]1C(=O)O | 1.29
17 | COc1c(-c2coc3cc4c(cc3c2=O)CC(OC(C)=O)C(C)(C)O4)ccc2c1C=CC(C)(C)O2 (stereo not given) | 0.644
18 | NC(=O)c1cc[n+](CC2=C(C(=O)O)N3C(=O)[C@@H](NC(=O)[C@@H](c4ccccc4)S(=O)(=O)[O-])[C@H]3SC2)cc1 | 1.68
19 | CC(=O)Oc1ccc2c(c1)CC[C@@H]1[C@@H]2CC[C@]2(C)[C@@H](O)CC[C@@H]12 | 1.2
20 | COc1ccc(C(Cl)=C(c2ccc(OC)cc2)c2ccc(OC)cc2)cc1 | -3.06
21 | O=C(O)c1cccc(O)c1O | 1.88
22 | CC(CCc1ccccc1)NCC(O)c1ccc(O)c(C(N)=O)c1 (stereo not given) | 1.31

# The list continues:

row,Compound,AlphaScreen HuR-RNA complex signal Z-score
1,Cc1onc(-c2c(Cl)cccc2Cl)c1C(=O)N[C@@H]1C(=O)N2[C@@H]1SC(C)(C)[C@@H]2C(=O)O,-6.19
2,COc1cc(OC)c(C(C)=O)c(O)c1C,1.78
3,CN(C)/N=N/c1[nH]cnc1C(N)=O,1.05
4,C[N+](C)(C)CCCCCC[N+](C)(C)C,2.55
5,COc1c2ccoc2c(OC)c2oc(=O)ccc12,0.794
6,COc1ccc([C@@H]2CC(=O)c3c(O)cc(O[C@@H]4O[C@H](CO[C@@H]5O[C@@H](C)[C@H](O)[C@@H](O)[C@H]5O)[C@@H](O)[C@H](O)[C@H]4O)cc3O2)cc1O,2.4
7,CC(C)(C(=O)O)c1ccc(C(O)CCCN2CCC(C(O)(c3ccccc3)c3ccccc3)CC2)cc1 (stereo not given),1.69
8,CN(C)CCCN1c2ccccc2Sc2ccccc21,4.21
9,Cc1cc(C(C)(C)C)c(O)c(C)c1CC1=NCCN1,6.38
10,O=C[C@H](O)[C@@H](O)[C@H](O)CO,2.41
11,C=CC(C1=CC(=O)C=CC1=O)c1ccccc1 (stereo not given),2.56
12,COC(=O)[C@H](OC(C)=O)[C@H]1C(C)(C)[C@H](OC(C)=O)[C@@H]2CC3=C4CC(=O)O[C@@H](c5ccoc5)[C@]4(C)CC[C@@H]3[C@@]1(C)C2=O,-2.17
13,COC(=O)[C@H]1[C@H]2C[C@H]3c4[nH]c5ccccc5c4CCN3C[C@@H]2CC[C@@H]1O,2.06
14,CC(=O)Nc1ccccc1,1.32
15,COc1ccc2c(=O)c(-c3cc4c(cc3OC)OCO4)coc2c1,1.5
16,COc1ccc2c(c1)OC/C(=C\c1ccc(OC)c(O)c1)C2=O,1.07
17,C[N+]1(C)[C@@H]2CC[C@H]1C[C@@H](OC(=O)C(O)c1ccccc1)C2 (stereo not given in full),-0.838
18,COc1ccc2c(c1)OC1(O)COc3cc(OC)c(OC)cc3C1=C2 (stereo not given),2.17
19,Oc1ncnc2[nH]ncc12,0.719
20,CC1(C)C(=O)C=C[C@]2(C)[C@H]3CC[C@@]4(C)[C@H](c5ccoc5)OC(=O)[C@H]5O[C@]54[C@]3(C)C(=O)C[C@@H]12,1.44
21,CNCCCC1c2ccccc2C=Cc2ccccc21,1.34
22,C[C@]12CCC(=O)C=C1CC[C@@H]1[C@@H]2[C@@H](O)C[C@@]2(C)[C@H]1CC[C@]2(O)C(=O)CO,0.412
23,COc1ccc(CCN(C)CCCC(C#N)(c2ccc(OC)c(OC)c2)C(C)C)cc1OC (stereo not given),0.802
24,CCCc1cc(=O)[nH]c(=S)[nH]1,11.3

row,Compound,AlphaScreen HuR-RNA complex signal Z-score
1,CC1=C(CCC(=O)O)c2cc3[nH]c(cc4nc(cc5[nH]c(cc1n2)c(C)c5C(C)O)C(C)=C4C(C)O)c(C)c3CCC(=O)O (stereo not given),2.32
2,c1ccc2c(Cc3c[nH]c4ccccc34)c[nH]c2c1,1.24
3,CO/N=C(\C(=O)N[C@@H]1C(=O)N2C(C(=O)OCOC(=O)C(C)(C)C)=C(/C=C\c3scnc3C)CS[C@H]12)c1csc(N)n1,-7.88
4,CN(N=O)C(=O)N[C@H]1C(O)O[C@H](CO)[C@@H](O)[C@@H]1O (mixture of isomers),-1.91
5,CCCCC(=O)O[C@H]1CC[C@H]2[C@@H]3CCc4cc(O)ccc4[C@H]3CC[C@]12C,-2.76
6,COc1ccc2oc(-c3ccccc3OC)cc(=O)c2c1,1.67
7,Fc1ccc(C(c2ccc(F)cc2)N2CCN(C/C=C/c3ccccc3)CC2)cc1,0.515
8,CN1CCc2c(c3ccccc3n2Cc2ccccc2)C1,2.11
9,N=C(N)NC(=N)Nc1ccccc1,1.55
10,CN[C@@H]1[C@H](O[C@H]2[C@H](O[C@H]3[C@H](O)[C@@H](O)[C@H](N=C(N)N)[C@@H](O)[C@@H]3N=C(N)N)O[C@@H](C)[C@]2(O)C=O)O[C@@H](CO)[C@H](O)[C@H]1O,-0.697
11,C[C@H](N)CO,0.263
12,OCCOCCN1CCN(C2=Nc3ccccc3Sc3ccccc32)CC1,-3.38
13,Cc1cc(O)c(C)c(O)c1C(=O)O,1.61
14,COc1cccc2c1C(=O)c1c(O)c3c(c(O)c1C2=O)C[C@@](O)(C(=O)CO)C[C@@H]3O[C@H]1C[C@H](N)[C@H](O)[C@H](C)O1,-2.34
15,CC1(C)S[C@@H]2[C@H](NC(=O)[C@H](N)c3ccc(O)cc3)C(=O)N2[C@H]1C(=O)O,0.412
16,O=C(O)CCCCCCCCCCCC[C@@H]1C=CCC1,1.95
17,COc1cc(OC)c2c(=O)c(O)c(-c3ccc(OC)c(OC)c3)oc2c1,1.45
18,CNCc1ccccc1,1.27
19,N[C@@H](Cc1cc(I)c(Oc2cc(I)c(O)c(I)c2)c(I)c1)C(=O)O,-0.112
20,Cc1cc(=O)oc2cc(O)c(O)cc12,0.221
21,COc1cc(O)c(C(C)=O)c(O)c1,2.16
22,Nc1ncnc2c1ncn2[C@@H]1O[C@H](CO)[C@@H](O)[C@H]1O,0.412
23,Clc1ccc(CSC(Cn2ccnc2)c2ccc(Cl)cc2Cl)cc1 (stereo not given),1.42
